Data as given in PubChem BioAssay AID504771 (Drosophila RNAi Screening Center, 2011)
Aim: 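Knock-downs that increase or decrease Htt-Q46 aggregates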 (follow-up of hits). Cell system: Drosophila S2 cells with copper-inducible mutant huntingtin exon 1 (46 glutamines)-eGFP. Reagent: long dsRNA against Drosophila genes, 250 ng dsRNA per well. Time to read-out: 3 days of knock-down, then 2 days of copper induction before fixing. Challenge: copper sulfate at 400 µM to switch on Htt-Q46-eGFP expression. Measured: 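Per-well count, size and brightness of GFP aggregates from automated images, set against plate mean and SD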. Call rule: 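Primary candidate if any aggregate measure lay more than 2 SD from the plate mean; active only if it then passed checks for off-target effects, reproducibility, independent dsRNAs and a promoter counter-screen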. Calls: active = confirmed modifier; inactive = primary candidate not confirmed.
Only reagents picked out of a larger screen are listed. 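All genes were primary candidates; inactive means validation failed, not no effect; aggregate scores behind calls are not deposited.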 Unmarked entries are inactive. A plus sign joins genes that one reagent is predicted to hit.

Target gene | DRSC id | aggregation phenotype
CSN4 | DRSC07350 | knock-down raises aggregates
Srp54 | DRSC03442 | knock-down lowers aggregates
CG31687 + Cdc23 | DRSC23052 | knock-down lowers aggregates
Upf2 | DRSC18218 | knock-down raises aggregates (active)
Mtr4 | DRSC03560 | knock-down lowers aggregates (active)
Polr2G | DRSC16068 | knock-down lowers aggregates
mRpL1 | DRSC16251 | knock-down lowers aggregates
Sodh2 | DRSC16865 | knock-down raises aggregates
CG12093 | DRSC08252 | knock-down raises aggregates
Pym | DRSC22492 | knock-down lowers aggregates
MED8 | DRSC06426 | knock-down lowers aggregates
CG2182 | DRSC12308 | knock-down lowers aggregates
MED14 | DRSC08235 | knock-down lowers aggregates
Sf3b1 | DRSC00535 | knock-down lowers aggregates
TSG101 | DRSC11098 | knock-down lowers aggregates (active)
Syx5 | DRSC03432 | knock-down lowers aggregates
Prosbeta1 | DRSC07159 | knock-down lowers aggregates (active)
Obp57e | DRSC05891 | knock-down raises aggregates
CG32104 | DRSC10127 | knock-down lowers aggregates
CG14082 | DRSC10086 | knock-down raises aggregates
RpL13 | DRSC03416 | knock-down lowers aggregates
Wnk | DRSC11813 | knock-down lowers aggregates
w-cup | DRSC03048 | knock-down lowers aggregates
cbc | DRSC06957 | knock-down lowers aggregates
Fib | DRSC04614 | knock-down lowers aggregates
eIF3f1 | DRSC12328 | knock-down lowers aggregates
RpL24 | DRSC03185 | knock-down lowers aggregates
Ars2 | DRSC04893 | knock-down lowers aggregates

Entries listed above marked active:
Target gene | DRSC id | aggregation phenotype
Upf2 | DRSC18218 | knock-down raises aggregates (active)
Mtr4 | DRSC03560 | knock-down lowers aggregates (active)
TSG101 | DRSC11098 | knock-down lowers aggregates (active)
Prosbeta1 | DRSC07159 | knock-down lowers aggregates (active)

More results follow.
Target gene | DRSC id | aggregation phenotype
eEF2 | DRSC03737 | knock-down lowers aggregates
swm | DRSC21831 | knock-down lowers aggregates
Non1 | DRSC05954 | knock-down lowers aggregates
Spc105R | DRSC11663 | knock-down lowers aggregates
Ctr9 | DRSC08562 | knock-down lowers aggregates
HDAC1 | DRSC08696 | knock-down raises aggregates (active)
RpL36A | DRSC03055 | knock-down lowers aggregates
CG7044 | DRSC16180 | knock-down raises aggregates
aurB | DRSC23324 | knock-down lowers aggregates
mRpL17 | DRSC08350 | knock-down lowers aggregates
Bap60 | DRSC19337 | knock-down lowers aggregates
Nmt | DRSC11236 | knock-down lowers aggregates
CG31959 (retired record) | DRSC22912 | knock-down raises aggregates (active)
velo | DRSC08841 | knock-down lowers aggregates
velo | DRSC09698 | knock-down lowers aggregates
RpLP0 | DRSC11878 | knock-down lowers aggregates
RpLP0 | DRSC22110 | knock-down lowers aggregates
Uev1A | DRSC09763 | knock-down raises aggregates
rn | DRSC12500 | knock-down raises aggregates (active)
CG34181 | DRSC01071 | knock-down lowers aggregates
CG30349 | DRSC06839 | knock-down lowers aggregates (active)
RpL3 | DRSC16834 | knock-down lowers aggregates
pAbp | DRSC07659 | knock-down lowers aggregates
CG32733 (retired record) + CG32797 | DRSC17705 | knock-down lowers aggregates
eIF3c | DRSC06905 | knock-down lowers aggregates
CG7483 | DRSC22432 | knock-down lowers aggregates
RpL14 | DRSC11269 | knock-down lowers aggregates
Sse | DRSC09746 | knock-down lowers aggregates
Spt6 | DRSC18836 | knock-down lowers aggregates
Aos1 | DRSC14113 | knock-down lowers aggregates (active)
Pif1A + Pif1B | DRSC14380 | knock-down lowers aggregates
E2f1 | DRSC16655 | knock-down raises aggregates
RpS6 | DRSC18712 | knock-down lowers aggregates
Cdk2 | DRSC16921 | knock-down raises aggregates
Srlp | DRSC15890 | knock-down lowers aggregates
Cdc45 | DRSC17747 | knock-down may raise aggregates
raw | DRSC03599 | knock-down may raise aggregates (active)
Prosalpha3 | DRSC04644 | knock-down lowers aggregates
MED28 | DRSC15721 | knock-down lowers aggregates
Dp | DRSC07402 | knock-down raises aggregates (active)
Prosbeta5 | DRSC07517 | knock-down lowers aggregates
Prosbeta3 | DRSC16801 | knock-down lowers aggregates
RpL18A | DRSC07538 | knock-down lowers aggregates
Cbp20 | DRSC16601 | knock-down lowers aggregates
ZnT63C | DRSC21989 | knock-down lowers aggregates
RpL13A | DRSC12265 | knock-down lowers aggregates
mRpL21 | DRSC11100 | knock-down lowers aggregates
